For one molecule, binding results are on record in paper PMC9063202 (2022).

Sequences of proteins named here, by UniProt entry; tags and fusion partners are left off. A change or cut given only in a name is not applied to a line headed by its entry.
UniProt Q8NAU1: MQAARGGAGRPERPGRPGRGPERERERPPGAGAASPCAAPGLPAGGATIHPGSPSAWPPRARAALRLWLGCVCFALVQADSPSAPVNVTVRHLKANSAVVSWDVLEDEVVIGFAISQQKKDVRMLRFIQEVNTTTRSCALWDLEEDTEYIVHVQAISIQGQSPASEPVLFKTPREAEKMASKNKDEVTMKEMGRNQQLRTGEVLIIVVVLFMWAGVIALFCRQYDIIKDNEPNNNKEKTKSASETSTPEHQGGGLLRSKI

Results are given in words; binding and its absence hold for the method and conditions named. In cells and extracts the contact can be indirect. These calls come from enrichment with a bait or labelling near it, and not all partners need be listed.

The test deals with IRISIN protein (human recombinant IRISIN) (human) (UniProt Q8NAU1). The test is described as follows: affinity purification with mass spectrometry; IRISIN IP with lysates of rosiglitazone- and IRISIN-treated MSCs; SDS-PAGE, silver staining, LC-MS/MS; TRPC3 confirmed by western blot; only the target purified.

B1: TRPC3, endogenous in adipose-derived mesenchymal stem cells (protein, UniProt Q13507 1-921)
chain: MSTKVRKCKEQARVTFPAPEEEEDEGEDEGAEPQRRRRGWRGVNGGLEPRSAPSQREPHGYCPPPFSHGPDLSMEGSPSLRRMTVMREKGRRQAVRGPAFMFNDRGTSLTAEEERFLDAAEYGNIPVVRKMLEESKTLNVNCVDYMGQNALQLAVGNEHLEVTELLLKKENLARIGDALLLAISKGYVRIVEAILNHPGFAASKRLTLSPCEQELQDDDFYAYDEDGTRFSPDITPIILAAHCQKYEVVHMLLMKGARIERPHDYFCKCGDCMEKQRHDSFSHSRSRINAYKGLASPAYLSLSSEDPVLTALELSNELAKLANIEKEFKNDYRKLSMQCKDFVVGVLDLCRDSEEVEAILNGDLESAEPLEVHRHKASLSRVKLAIKYEVKKFVAHPNCQQQLLTIWYENLSGLREQTIAIKCLVVLVVALGLPFLAIGYWIAPCSRLGKILRSPFMKFVAHAASFIIFLGLLVFNASDRFEGITTLPNITVTDYPKQIFRVKTTQFTWTEMLIMVWVLGMMWSECKELWLEGPREYILQLWNVLDFGMLSIFIAAFTARFLAFLQATKAQQYVDSYVQESDLSEVTLPPEIQYFTYARDKWLPSDPQIISEGLYAIAVVLSFSRIAYILPANESFGPLQISLGRTVKDIFKFMVLFIMVFFAFMIGMFILYSYYLGAKVNAAFTTVEESFKTLFWSIFGLSEVTSVVLKYDHKFIENIGYVLYGIYNVTMVVVLLNMLIAMINSSYQEIEDDSDVEWKFARSKLWLSYFDDGKTLPPPFSLVPSPKSFVYFIMRIVNFPKCRRRRLQKDIEMGMGNSKSRLNLFTQSNSRVFESHSFNSILNQPTRYQQIMKRLIKRYVLKAQVDKENDEVNEGELKEIKQDISSLRYELLEDKSQATEELAILIHKLSEKLNPSMLRCE
Consider B1, for which the binding entry is reported as “binds”.
